Data published in the supplement of paper PMC7877785.
± gives the uncertainty stated by the source. The uncertainty is large for many entries.

Assay: self-splicing fitness, log relative to wild type (ln ratio); higher = more splicing; Tetrahymena group I intron in knt gene, E. coli kanamycin selection, DiMSum; sequences stand for … in CUCUCU…GGAGGGAAAAGUUAUCAGGCAUGCACCUGGUAGCUAGUCUUUAAACCAAUAGAUUGCAUCGGUUUAAAAGGCAAGACCGUCAAAUUGCGGGAAAGGGGUCAACAGCCGUUCAGUACCAAGUCUCAGGGGAAACUUUGAGAUGGCCUUGCAAAGGGUAUGGUAAUAAGCUGACGGACAUGGUCCUAACCACGCAGCCAAGUCCUAAGUCAACAGAUCUUCUGUUGAUAUGGAUGCAGUUCACAGACUAAAUGUCGGUCGGGGAAGAUGUAUUCUUCUCAUAAGAUAUAGUCGGACCUCUCCUUAAUGGGAGCUAGCGGAUGAAGUGAUGCAACACUGGAGCCGCUGGGAACUAAUUUGUAUGCGAAAGUAUAUUGAUUAGUUUUGGAGUACUCGUGGUCG
Method in brief: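 Fitness was computed with DiMSum as the error-weighted combination of replicate fold changes, kanamycin versus none, each normalised to wild type. The library randomised all eight intron nucleotides of the P1ex region, with the intron placed in the knt kanamycin-resistance gene on pET-22b(+) in E. coli BL21(DE3). Six replicate transformations were grown overnight at 37°C or 30°C on LB agar with or without 25 μg/mL kanamycin, plus 100 μg/mL carbenicillin, 50 μM IPTG and 0.2% rhamnose. Pooled colonies were amplicon-sequenced on an Illumina HiSeq 2500.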

Row | Sequence | self-splicing fitness (ln) (30 °C) | self-splicing fitness (ln) (37 °C)
1 | GUGGAGCAAUAUUACGGCGG | -3.32 ± 0.29 | -1.54 ± 0.27
2 | UGAGAGCAAUAUUACGUUUC | -3.93 ± 0.51 | -2.32 ± 0.56
3 | AGCGAGCAAUAUUACGUACG | -3.5 ± 1 | -2.74 ± 0.78
4 | UAAUAGCAAUAUUACGUACC | -2.81 ± 0.59 | -1.39 ± 1.2
5 | CUGGAGCAAUAUUACGGUUC | – | 0.0694 ± 0.63
6 | UAAGAGCAAUAUUACGCUCC | -3.13 ± 1 | -2.65 ± 0.54
7 | CCAUAGCAAUAUUACGGUUA | -3.57 ± 0.29 | -2.73 ± 0.21
8 | UCUGAGCAAUAUUACGGGCC | – | -2.11 ± 0.57
9 | GGCUAGCAAUAUUACGGGCU | -4.72 ± 0.51 | –
10 | GUGCAGCAAUAUUACGCGCA | – | -2.94 ± 0.74
11 | CUUGAGCAAUAUUACGGAUC | -4.33 ± 0.72 | –
12 | GUUGAGCAAUAUUACGCCAC | -4.23 ± 0.73 | -1.6 ± 0.61
13 | CGUGAGCAAUAUUACGUACG | -3.37 ± 0.61 | –
14 | AUCCAGCAAUAUUACGUCCG | -2.45 ± 0.17 | -1.04 ± 0.15
15 | CAUUAGCAAUAUUACGCGAC | – | -2.02 ± 0.57
16 | GCGGAGCAAUAUUACGGGAU | – | -2.39 ± 1.1
17 | CGCGAGCAAUAUUACGAAGA | -3.34 ± 0.54 | –
18 | GCAGAGCAAUAUUACGCCCG | -3.19 ± 0.63 | -1.9 ± 0.6
19 | AGACAGCAAUAUUACGCCGC | -4.4 ± 1 | –
20 | UCUGAGCAAUAUUACGACAA | – | -1.47 ± 1.2
21 | CCGUAGCAAUAUUACGCAUC | -3.6 ± 0.74 | -4.15 ± 0.59
22 | CACAAGCAAUAUUACGGUUC | -4.1 ± 0.22 | -2.66 ± 0.19
23 | GCGGAGCAAUAUUACGGCCA | -2.79 ± 0.87 | -1.5 ± 0.53

Row | Sequence | self-splicing fitness (ln) (30 °C) | self-splicing fitness (ln) (37 °C)
24 | UGCGAGCAAUAUUACGUAGA | -3.58 ± 0.62 | –
25 | UAUGAGCAAUAUUACGAGCC | – | 0.0375 ± 0.59
26 | AAAUAGCAAUAUUACGAGGC | – | -2.84 ± 0.6
27 | UUUUAGCAAUAUUACGUCUC | -2.97 ± 0.64 | -2.01 ± 0.65
28 | UCCGAGCAAUAUUACGCGAU | -4.9 ± 0.71 | –
29 | CAAGAGCAAUAUUACGACCU | – | -1.09 ± 0.67
30 | GAGCAGCAAUAUUACGGACC | -0.847 ± 0.11 | -0.206 ± 0.16
31 | CGGAAGCAAUAUUACGAAUA | – | -3.31 ± 0.52
32 | UAUUAGCAAUAUUACGAGAA | -1.93 ± 1.2 | –
33 | CUAUAGCAAUAUUACGCCGA | -1.32 ± 0.71 | –
34 | CGAGAGCAAUAUUACGGAUU | – | -3.4 ± 1
35 | UCGUAGCAAUAUUACGGGAC | -4.57 ± 1 | –
36 | UUACAGCAAUAUUACGCCGC | -3.19 ± 0.56 | -1.33 ± 1.2
37 | CUUAAGCAAUAUUACGGAUA | – | -3.33 ± 1
38 | CGAGAGCAAUAUUACGCGCC | -2.25 ± 1.1 | -0.778 ± 1
39 | CAUUAGCAAUAUUACGUGUC | -4.73 ± 1 | –
40 | GUUCAGCAAUAUUACGGCUA | -0.564 ± 0.14 | -0.232 ± 0.15
41 | UUCGAGCAAUAUUACGGGCG | -2.45 ± 0.2 | -1.01 ± 0.18
42 | UAGGAGCAAUAUUACGCUAC | -1.96 ± 0.87 | –
43 | GUCAAGCAAUAUUACGUAUU | -2.98 ± 0.12 | -1.84 ± 0.1
44 | CUGCAGCAAUAUUACGACAA | -0.992 ± 0.54 | –
45 | CUGAAGCAAUAUUACGGAUC | -4.12 ± 0.59 | -4.29 ± 0.72
46 | GAUGAGCAAUAUUACGCUAA | -1.45 ± 0.61 | -3.39 ± 0.78

In another format: entries from further up.

| Row | Sequence | self-splicing fitness (ln) (30 °C) | self-splicing fitness (ln) (37 °C) |
| --- | --- | --- | --- |
| 31 | CGGAAGCAAUAUUACGAAUA | – | -3.31 ± 0.52 |
| 32 | UAUUAGCAAUAUUACGAGAA | -1.93 ± 1.2 | – |
| 33 | CUAUAGCAAUAUUACGCCGA | -1.32 ± 0.71 | – |
